These results are taken from publication doi:10.1101/2022.05.10.491305.

Results are given in words; binding and its absence hold for the method and conditions named. In cells and extracts the contact can be indirect. Some entries that bind do so weakly or less than the wild type. Sequences can lack the tags named with a protein.

What all share (test): cross-linking
Assay [1] addresses FLAG-tagged wild-type human MX1 (HsMX1), stably expressed in HEK293T cells (human) (UniProt P20591).
The target in assay [2] is FLAG-tagged HsMX1 M527D (monomeric mutant), stably expressed in HEK293T cells (human) (UniProt P20591).
Assay [3] deals with FLAG-tagged HsMX1 T103A (GTPase inactive mutant), stably expressed in HEK293T cells (human) (UniProt P20591).
The target of assay [4] is FLAG-tagged HsMX1 L41A, stably expressed in HEK293T cells (human) (UniProt P20591).

B1: FLAG-tagged wild-type human MX1 (HsMX1), stably expressed in HEK293T cells (protein, UniProt P20591 1-662)
chain: MVVSEVDIAKADPAAASHPLLLNGDATVAQKNPGSVAENNLCSQYEEKVRPCIDLIDSLRALGVEQDLALPAIAVIGDQSSGKSSVLEALSGVALPRGSGIVTRCPLVLKLKKLVNEDKWRGKVSYQDYEIEISDASEVEKEINKAQNAIAGEGMGISHELITLEISSRDVPDLTLIDLPGITRVAVGNQPADIGYKIKTLIKKYIQRQETISLVVVPSNVDIATTEALSMAQEVDPEGDRTIGILTKPDLVDKGTEDKVVDVVRNLVFHLKKGYMIVKCRGQQEIQDQLSLSEALQREKIFFENHPYFRDLLEEGKATVPCLAEKLTSELITHICKSLPLLENQIKETHQRITEELQKYGVDIPEDENEKMFFLIDKVNAFNQDITALMQGEETVGEEDIRLFTRLRHEFHKWSTIIENNFQEGHKILSRKIQKFENQYRGRELPGFVNYRTFETIVKQQIKALEEPAVDMLHTVTDMVRLAFTDVSIKNFEEFFNLHRTAKSKIEDIRAEQEREGEKLIRLHFQMEQIVYCQDQVYRGALQKVREKELEEEKKKKSWDFGAFQSSSATDSSMEEIFQHLMAYHQEASKRISSHIPLIIQFFMLQTYGQQLQKAMLQLLQDKDTYSWLLKERSDTSDKRKFLKERLARLTQARRRLAQFPG
Consider B1, for which the binding entry in assay [1] is listed as “binds”.

B2: FLAG-tagged HsMX1 M527D (monomeric mutant), stably expressed in HEK293T cells (protein, UniProt P20591 1-662)
chain: MVVSEVDIAKADPAAASHPLLLNGDATVAQKNPGSVAENNLCSQYEEKVRPCIDLIDSLRALGVEQDLALPAIAVIGDQSSGKSSVLEALSGVALPRGSGIVTRCPLVLKLKKLVNEDKWRGKVSYQDYEIEISDASEVEKEINKAQNAIAGEGMGISHELITLEISSRDVPDLTLIDLPGITRVAVGNQPADIGYKIKTLIKKYIQRQETISLVVVPSNVDIATTEALSMAQEVDPEGDRTIGILTKPDLVDKGTEDKVVDVVRNLVFHLKKGYMIVKCRGQQEIQDQLSLSEALQREKIFFENHPYFRDLLEEGKATVPCLAEKLTSELITHICKSLPLLENQIKETHQRITEELQKYGVDIPEDENEKMFFLIDKVNAFNQDITALMQGEETVGEEDIRLFTRLRHEFHKWSTIIENNFQEGHKILSRKIQKFENQYRGRELPGFVNYRTFETIVKQQIKALEEPAVDMLHTVTDMVRLAFTDVSIKNFEEFFNLHRTAKSKIEDIRAEQEREGEKLIRLHFQDEQIVYCQDQVYRGALQKVREKELEEEKKKKSWDFGAFQSSSATDSSMEEIFQHLMAYHQEASKRISSHIPLIIQFFMLQTYGQQLQKAMLQLLQDKDTYSWLLKERSDTSDKRKFLKERLARLTQARRRLAQFPG
With B2, the binding result in assay [2] was “no binding”.

B3: FLAG-tagged HsMX1 T103A (GTPase inactive mutant), stably expressed in HEK293T cells (protein, UniProt P20591 1-662)
chain: MVVSEVDIAKADPAAASHPLLLNGDATVAQKNPGSVAENNLCSQYEEKVRPCIDLIDSLRALGVEQDLALPAIAVIGDQSSGKSSVLEALSGVALPRGSGIVARCPLVLKLKKLVNEDKWRGKVSYQDYEIEISDASEVEKEINKAQNAIAGEGMGISHELITLEISSRDVPDLTLIDLPGITRVAVGNQPADIGYKIKTLIKKYIQRQETISLVVVPSNVDIATTEALSMAQEVDPEGDRTIGILTKPDLVDKGTEDKVVDVVRNLVFHLKKGYMIVKCRGQQEIQDQLSLSEALQREKIFFENHPYFRDLLEEGKATVPCLAEKLTSELITHICKSLPLLENQIKETHQRITEELQKYGVDIPEDENEKMFFLIDKVNAFNQDITALMQGEETVGEEDIRLFTRLRHEFHKWSTIIENNFQEGHKILSRKIQKFENQYRGRELPGFVNYRTFETIVKQQIKALEEPAVDMLHTVTDMVRLAFTDVSIKNFEEFFNLHRTAKSKIEDIRAEQEREGEKLIRLHFQMEQIVYCQDQVYRGALQKVREKELEEEKKKKSWDFGAFQSSSATDSSMEEIFQHLMAYHQEASKRISSHIPLIIQFFMLQTYGQQLQKAMLQLLQDKDTYSWLLKERSDTSDKRKFLKERLARLTQARRRLAQFPG
As for B3, in assay [3], the binding entry was “binds”.

B4: FLAG-tagged HsMX1 L41A, stably expressed in HEK293T cells (protein, UniProt P20591 1-662)
chain: MVVSEVDIAKADPAAASHPLLLNGDATVAQKNPGSVAENNACSQYEEKVRPCIDLIDSLRALGVEQDLALPAIAVIGDQSSGKSSVLEALSGVALPRGSGIVTRCPLVLKLKKLVNEDKWRGKVSYQDYEIEISDASEVEKEINKAQNAIAGEGMGISHELITLEISSRDVPDLTLIDLPGITRVAVGNQPADIGYKIKTLIKKYIQRQETISLVVVPSNVDIATTEALSMAQEVDPEGDRTIGILTKPDLVDKGTEDKVVDVVRNLVFHLKKGYMIVKCRGQQEIQDQLSLSEALQREKIFFENHPYFRDLLEEGKATVPCLAEKLTSELITHICKSLPLLENQIKETHQRITEELQKYGVDIPEDENEKMFFLIDKVNAFNQDITALMQGEETVGEEDIRLFTRLRHEFHKWSTIIENNFQEGHKILSRKIQKFENQYRGRELPGFVNYRTFETIVKQQIKALEEPAVDMLHTVTDMVRLAFTDVSIKNFEEFFNLHRTAKSKIEDIRAEQEREGEKLIRLHFQMEQIVYCQDQVYRGALQKVREKELEEEKKKKSWDFGAFQSSSATDSSMEEIFQHLMAYHQEASKRISSHIPLIIQFFMLQTYGQQLQKAMLQLLQDKDTYSWLLKERSDTSDKRKFLKERLARLTQARRRLAQFPG
Regarding B4, in assay [4], the binding entry is given as “binds”.
